From patent US20100016221A1, “METHOD OF DEGRADING PROTEIN BY CHAPERONE-MEDIATED AUTOPHAGY” (RIKEN, priority 2008, published 2010)
At least one compound was matched to its structure with a doubt left.

Tested on: tNhtt-60Q-EGFP
Test: CMA activation by geldanamycin in 60Q Neuro2a cells, Western blot of polyQ levels
Assay type: cell-based, human
Settings: 300 nM geldanamycin

`COC1=C2C[C@@H](C)C[C@H](OC)[C@H](O)[C@@H](C)/C=C(\C)[C@H](OC(N)=O)[C@@H](OC)/C=C\C=C(/C)C(=O)NC(=CC1=O)C2=O` [Geldanamycin, geldanamycin] was tested, and the “effect of geldanamycin on polyQ protein levels in presence of RHQ” value was “enhanced the effect of RHQ”.
